The test system of the assay is CD2F1 mice, L1210 leukemia ip, survival T/C. In words: NCI In Vivo Anticancer Drug Screen. Data for tumor model L1210 Leukemia (intraperitoneal) in CD2F1 (CDF1) mice. The following applies: higher T/C = longer survival. As for the experimental part: The antitumor activity of compounds was measured in mice bearing transplantable tumors. Survival or tumor size were measured and the results are expressed as the measurement made in the treated group (T) divided by the measurement made in the vehicle treated control group (C). The tumor model used in this assay is L1210 Leukemia (intraperitoneal) in CD2F1 (CDF1) mice

[1] abbreviates: T/C endpoint: mean survival time, dose: 100.0 mg/kg/injection, schedule: Q04DX002 (ip), vehicle: saline with Tween-80.
[2] abbreviates: T/C endpoint: mean survival time, dose: 200.0 mg/kg/injection, schedule: Q04DX002 (ip), vehicle: saline with Tween-80.
The mark [3] stands for this setting: T/C endpoint: mean survival time, dose: 400.0 mg/kg/injection, schedule: Q04DX002 (ip), vehicle: saline with Tween-80.
Setting [4] is: T/C endpoint: median survival time, dose: 2.0 mg/kg/injection, schedule: Q01DX005 (ip), vehicle: Klucel (hydroxypropylcellulose) (HPC).
Setting [5] is: T/C endpoint: median survival time, dose: 2.0 mg/kg/injection, schedule: Q01DX009 (ip), vehicle: Klucel (hydroxypropylcellulose) (HPC).
The mark [6] stands for this setting: T/C endpoint: mean survival time, dose: 100.0 mg/kg/injection, schedule: Q01DX009 (ip), vehicle: saline with Tween-80.

The structures appear in SMILES notation. The list is a part of this screen's results and no random one: it gathers tests that were run many times, whatever their T/C, doses with no T/C, and many T/C values between a quarter and a half above the control. Other doses and runs of a compound stand elsewhere. T/C: endpoint of the treated group in % of that of the vehicle group. Some doses have a count of surviving animals in place of a T/C: the source holds a T/C of zero for them, seemingly a mark for toxic or unscored doses. Some doses without a T/C left all or most animals alive at the check, yet need not have been tolerated: the source hardly ever lists a survival T/C far under the control, and the zero likely stands for such cases as well. Survivors were counted at the toxicity check, usually on the fifth day, unless a day is given; later deaths do not show. Schedule codes are those of the source, taken here to give the interval after Q, in days (D) or hours (H), and the number of doses after X. Where survival is the endpoint, this PubChem deposit counts one and a half times the control or more as active, and values a quarter to a half above the control carry no call in these data; other NCI protocols may use other cut-offs. Some T/C values carry the count of animals alive at the toxicity check (mostly the fifth day); where none is given, no animal had died by that day. Some doses were run more than once; their values stand side by side, smallest first. Counts like (3×) count equal records among those shown.

For `CNC[C@@H](O)c1ccc(O)c(O)c1`, the survivor count is on record as 1 of 6 (T/C endpoint: mean survival time, dose: 10.0 mg/kg/injection, schedule: Q01DX009 (ip), vehicle: saline); 0 of 6 (T/C endpoint: mean survival time, dose: 15.0 mg/kg/injection, schedule: Q01DX001 (ip), vehicle: saline); 0 of 6 (T/C endpoint: mean survival time, dose: 20.0 mg/kg/injection, schedule: Q01DX009 (ip), vehicle: saline); 0 of 6 (T/C endpoint: mean survival time, dose: 30.0 mg/kg/injection, schedule: Q01DX001 (ip), vehicle: saline); 0 of 6 (T/C endpoint: mean survival time, dose: 40.0 mg/kg/injection, schedule: Q01DX009 (ip), vehicle: saline); 0 of 6 (T/C endpoint: mean survival time, dose: 60.0 mg/kg/injection, schedule: Q01DX001 (ip), vehicle: saline). The survivor count (T/C endpoint: mean survival time, dose: 120.0 mg/kg/injection, schedule: Q01DX001 (ip), vehicle: saline) is 0 of 6.

On to `CCCCC(CC)CNCC(CC)CCCC` (stereo not drawn), for which, where the note is “T/C endpoint: mean survival time, dose: 200.0 mg/kg/injection, schedule: Q04DX003 (ip), vehicle: saline with Tween-80”, the survivor count is 0 of 6.

Consider `CC(=O)c1cc(C)[nH]c1C`, for which, where the note is “T/C endpoint: mean survival time, dose: 400.0 mg/kg/injection, schedule: Q04DX003 (ip), vehicle: saline with Tween-80”, the survivor count is reported as 5 of 6.

For `CC[C@@]1(OC(=O)CN2CCNCC2)C(=O)OCc2c1cc1n(c2=O)Cc2cc3ccccc3nc2-1`, the T/C reads like this: (T/C endpoint: median survival time, dose: 12.5 mg/kg/injection, schedule: Q04DX002 (ip), vehicle: water) 125 % of control; (T/C endpoint: median survival time, dose: 25.0 mg/kg/injection, schedule: Q04DX002 (ip), vehicle: water) 131 and 142 % of control.

On to `CCOP(=S)(N=C=S)OCC`, for which the survivor count runs as follows: under setting [1], 0 of 3; under setting [2], 0 of 3; under setting [3], 0 of 3.

`C=CCSc1ncnc2c1ncn2C1OC(CO)C(O)C1O` (stereo not drawn): the T/C was 131 % of control (T/C endpoint: mean survival time, dose: 58.0 mg/kg/injection, schedule: Q01DX009 (ip), vehicle: carboxymethylcellulose (CMC)) and 140 % of control (T/C endpoint: mean survival time, dose: 200.0 mg/kg/injection, schedule: Q01DX009 (ip), vehicle: carboxymethylcellulose (CMC)).

For the compound `CC(C)OC(=O)N1C(=O)C2C3CCC(O3)C2C1=O` (stereo not drawn), under setting [2], the survivor count is 3 of 3.

With `O=NN(CCCl)C(=O)Nc1ccc2[nH]c3ccccc3c2c1`, the T/C (T/C endpoint: mean survival time, dose: 265.0 mg/kg/injection, schedule: Q01DX009 (ip), vehicle: saline with Tween-80) is 141 % of control. Further, the survivor count was 5 of 6 (T/C endpoint: mean survival time, dose: 400.0 mg/kg/injection, schedule: Q01DX009 (ip), vehicle: Klucel (hydroxypropylcellulose) (HPC)) and 0 of 6 (T/C endpoint: mean survival time, dose: 600.0 mg/kg/injection, schedule: Q01DX009 (ip), vehicle: saline with Tween-80).

As for `CC12CCC(=O)C=C1CCCC2O` (stereo not drawn), where the note is “T/C endpoint: mean survival time, dose: 400.0 mg/kg/injection, schedule: Q04DX003 (ip), vehicle: saline sonified”, the survivor count is 5 of 6.

As to `O=c1ncccn1[C@@H]1O[C@H](CO)[C@H](O)C1O` (stereo partly drawn), the T/C by setting is: (T/C endpoint: median survival time, dose: 50.0 mg/kg/injection, schedule: Q01DX009 (ip), vehicle: saline, evaluated on day 20) 126 % of control; (T/C endpoint: median survival time, dose: 50.0 mg/kg/injection, schedule: Q01DX009 (ip), vehicle: saline, evaluated on day 30) 107, 114, 118 (2×), 119 % of control; (T/C endpoint: median survival time, dose: 100.0 mg/kg/injection, schedule: Q01DX009 (ip), vehicle: saline, evaluated on day 20) 155 % of control; (T/C endpoint: median survival time, dose: 100.0 mg/kg/injection, schedule: Q01DX009 (ip), vehicle: saline, evaluated on day 30) 124, 130, 131, 135, 148 % of control; (T/C endpoint: median survival time, dose: 200.0 mg/kg/injection, schedule: Q01DX009 (ip), vehicle: saline, evaluated on day 20) 164 % of control; (T/C endpoint: median survival time, dose: 200.0 mg/kg/injection, schedule: Q01DX009 (ip), vehicle: saline, evaluated on day 30) 131, 137, 141, 144, 166 % of control. In addition, the T/C is 181 % of control (T/C endpoint: median survival time, dose: 400.0 mg/kg/injection, schedule: Q01DX009 (ip), vehicle: saline, evaluated on day 20); 146, 151, 164, 175 % of control (2×) (T/C endpoint: median survival time, dose: 400.0 mg/kg/injection, schedule: Q01DX009 (ip), vehicle: saline, evaluated on day 30); 130 % of control (T/C endpoint: median survival time, dose: 400.0 mg/kg/injection, schedule: Q01DX009 (oral), vehicle: saline); 189 % of control (T/C endpoint: median survival time, dose: 800.0 mg/kg/injection, schedule: Q01DX009 (ip), vehicle: saline, evaluated on day 20); 128, 166, 193 % of control (T/C endpoint: median survival time, dose: 800.0 mg/kg/injection, schedule: Q01DX009 (ip), vehicle: saline, evaluated on day 30).

`C[n+]1c(/C=C\C=C\N2CCCCC2)sc2ccccc21`: the survivor count (T/C endpoint: mean survival time, dose: 50.0 mg/kg/injection, schedule: Q04DX002 (ip), vehicle: saline with Tween-80) is 0 of 3; the survivor count under setting [1] is reported as 0 of 3; the survivor count under setting [2] is 0 of 3; the survivor count under setting [3] is recorded as 0 of 3; the survivor count under setting [4] is on record as 4 of 6; the survivor count under setting [5] is given as 3 of 6. The T/C (T/C endpoint: median survival time, dose: 0.13 mg/kg/injection, schedule: Q01DX005 (ip), vehicle: Klucel (hydroxypropylcellulose) (HPC)) is 98, 100, 102 (3×), 103, 104, 105, 112 (2×), 114 % of control; the T/C (T/C endpoint: median survival time, dose: 0.13 mg/kg/injection, schedule: Q01DX009 (ip), vehicle: Klucel (hydroxypropylcellulose) (HPC)) is 96, 102 (4×), 104 (2×), 105, 106, 107 % of control (2×); the T/C (T/C endpoint: median survival time, dose: 0.25 mg/kg/injection, schedule: Q01DX005 (ip), vehicle: Klucel (hydroxypropylcellulose) (HPC)) is 100, 101, 102 (2×), 103, 107, 108 (2×), 109, 110 % of control (2×); the T/C (T/C endpoint: median survival time, dose: 0.25 mg/kg/injection, schedule: Q01DX009 (ip), vehicle: Klucel (hydroxypropylcellulose) (HPC)) was 97, 98, 100 (2×), 102 [5 of 6 alive], 104, 105 (2×), 106, 108, 113 % of control; the T/C (T/C endpoint: median survival time, dose: 0.5 mg/kg/injection, schedule: Q01DX005 (ip), vehicle: Klucel (hydroxypropylcellulose) (HPC)) was 98, 100, 101 [5 of 6 alive], 102 (3×), 104, 105, 106, 110, 112 % of control; the T/C (T/C endpoint: median survival time, dose: 0.5 mg/kg/injection, schedule: Q01DX009 (ip), vehicle: Klucel (hydroxypropylcellulose) (HPC)) was 101, 102, 103 (3×), 106 (2×), 108 (2×), 110, 114 % of control. The T/C is 98, 102, 105 (2×), 106 (2×), 107, 108, 109, 113, 114 % of control (T/C endpoint: median survival time, dose: 1.0 mg/kg/injection, schedule: Q01DX005 (ip), vehicle: Klucel (hydroxypropylcellulose) (HPC)); 100, 102, 104 (2×), 105, 106, 110, 112, 113, 123, 125 % of control (T/C endpoint: median survival time, dose: 1.0 mg/kg/injection, schedule: Q01DX009 (ip), vehicle: Klucel (hydroxypropylcellulose) (HPC)); 104, 109 [5 of 6 alive], 110, 112, 113 (2×), 116, 119, 120, 121 % of control [5 of 6 alive] under setting [4]; 96, 102, 107, 110 (2×), 113 [5 of 6 alive], 120, 121 [5 of 6 alive], 123, 132 % of control under setting [5].

Turning to `COC(=O)NC1C(C)OC(OC2C/C=C(/C)C3C=CC4C(OC5CC(OC6CC(O)C(OC7CC(O)C(OC)C(C)O7)C(C)O6)C(O)C(C)O5)C(C)CC(C)C4C3(C)/C(O)=C3\C(=O)OC4(CC(C)C(CO)=CC4/C=C\2C)C3=O)CC1(C)[N+](=O)[O-]` (stereo not drawn), the survivor count (T/C endpoint: median survival time, dose: 200.0 mg/kg/injection, schedule: Q01DX009 (ip), vehicle: Klucel (hydroxypropylcellulose) (HPC)) is 2 of 6.

For the compound `O=c1[nH]c2ccccc2nc1Cl`, under setting [1], the survivor count is listed as 3 of 3.

For the compound `OC1(c2ccccc2)CCN(C/C=C/c2ccc(Cl)cc2)CC1`, the survivor count is, setting by setting: (T/C endpoint: median survival time, dose: 100.0 mg/kg/injection, schedule: Q04DX003 (ip), vehicle: saline with Tween-80) 3 of 3; (T/C endpoint: median survival time, dose: 200.0 mg/kg/injection, schedule: Q04DX003 (ip), vehicle: saline with Tween-80) 0 of 3.

With `Cc1c(C#N)sc2ccccc12`, the survivor count (T/C endpoint: mean survival time, dose: 200.0 mg/kg/injection, schedule: Q01DX009 (ip), vehicle: other) is given as 0 of 6 and the survivor count (T/C endpoint: mean survival time, dose: 400.0 mg/kg/injection, schedule: Q04DX003 (ip), vehicle: other) was 5 of 6.

As for `COc1ccc2c(c1)C/C(=N\O)C2=O`, under setting [6], the survivor count is 5 of 6.

With `NC(=S)c1cccc(OCCOc2cccc3ccccc23)c1`, the survivor count runs as follows: under setting [6], 6 of 6; (T/C endpoint: mean survival time, dose: 200.0 mg/kg/injection, schedule: Q01DX009 (ip), vehicle: saline with Tween-80) 2 of 6; (T/C endpoint: mean survival time, dose: 400.0 mg/kg/injection, schedule: Q01DX009 (ip), vehicle: saline with Tween-80) 0 of 6.

The record behind these values is PubChem BioAssay AID256 (DTP/NCI, 2004).
